In patent publication US20210236532A1, “THERAPEUTIC AGENT FOR FRONTOTEMPORAL LOBAR DEGENERATION, METHOD FOR SCREENING THERAPEUTIC AGENT FOR FRONTOTEMPORAL LOBAR DEGENERATION AND METHOD FOR TREATING FRONTOTEMPORAL LOBAR DEGENERATION” (National University Corporation Tokyo Medical and Dental …, priority 2018, published 2021):
For at least one compound, name, drawing or mass did not settle the structure.

How the values were obtained:
Assay type in all cases: in vivo
[1] = test system: PGRN-KI mice; assay: Fear conditioning experiment (freezing reaction)
Method: (§1) The following two types of behavioral experiments (fear conditioning experiment and Morris water maze test) were performed, and an impaired cognitive response was found in the PGRN-KI mice of 12 weeks or older. Such an impaired response is a symptom similarly seen in frontotemporal lobar degeneration. It is to be noted that all behavioral tests are carried out according to the method indicated by Ito H. et al. (Mol Psychiatry. 2015 April; 20 (4): 459-471).
A fear conditioning experiment was performed with the PGRN-KI mice and control mice (C57BL/6J mice without the knock-in). Specifically, the mice received electrical stimulation (0.4 mA, 2 s) on their paws along with sound stimulation (65 dB white noise, 30 s). Twenty-four hours later, the frequency of the freezing reaction in the mice was measured when the mice were subjected to the sound stimulation without the electrical stimulation in the same chamber. […] This means that the cognitive response of the PGRN-KI mice was impaired as compared with the control mice. […]

[2] = test system: PGRN-KI mice; assay: Morphological analysis of spines (two-photon excitation microscope, IMARIS)
Method: The knockdown of each gene was performed according to the following procedures: Lentiviral particles (2×10^5 titer units/100 μl) containing scrambled shRNA (sc-108080, manufactured by Santa Cruz Biotechnology), Tau-shRNA (sc-430402-V, manufactured by Santa Cruz Biotechnology), B-Raf shRNA (sc-63294-V, manufactured by Santa Cruz Biotechnology), or Tyro3-siRNA (iV037848, manufactured by ABM) were diluted to 1:4 with ACSF buffer (NaCl 125 mM; KCl 2.5 mM; NaH2PO4 1.25 mM; MgCl2 1 mM; CaCl2) 1 mM; NaHCO326 mM; and glucose 25 mM). Further, a plasmid vector (10 μg) containing scrambled shRNA (TG501653, manufactured by OriGene), PKCα-shRNA (TG501653, manufactured by OriGene), or Gas6-shRNA (sc-35451-SH, manufactured by Santa Cruz Biotechnology) was dissolved in 100 μl of in vivo-jetPEI (201-10G, manufactured by Polyplus-transfection). […]
Images of dendrites from the mice (at 12 weeks of age) knocked down for each gene were acquired using a two-photon excitation microscope. In addition, the number of spines was measured using “IMARIS software” (IMARIS 7.2.2, manufactured by Bitplane GmbH). […]
Images of dendrites from the mice (at 12 weeks of age) in each administered group were acquired using a two-photon excitation microscope. In addition, the number of spines was measured using “IMARIS software” (IMARIS 7.2.2, manufactured by Bitplane GmbH). […]

[3] = test system: PGRN-KI mice; assay: Morris water maze test
Method: as §1
A Morris water maze test was performed with the PGRN-KI mice and control mice (C57BL/6J mice without the knock-in). Specifically, the mice received a 60-second trial four times per day for 5 days, and the time period taken for each mouse to reach the platform was measured. […] This means that the cognitive response of the PGRN-KI mice was impaired as compared with the control mice.
The knockdown of each gene was performed according to the following procedures: Lentiviral particles (2×10^5 titer units/100 μl) containing scrambled shRNA (sc-108080, manufactured by Santa Cruz Biotechnology), Tau-shRNA (sc-430402-V, manufactured by Santa Cruz Biotechnology), B-Raf shRNA (sc-63294-V, manufactured by Santa Cruz Biotechnology), or Tyro3-siRNA (iV037848, manufactured by ABM) were diluted to 1:4 with ACSF buffer (NaCl 125 mM; KCl 2.5 mM; NaH2PO4 1.25 mM; MgCl2 1 mM; CaCl2) 1 mM; NaHCO326 mM; and glucose 25 mM). […]

[4] = PGRN-KI mice, treated vs untreated/unknocked-down PGRN-KI mice
[5] = control mice (C57BL/6J without the knock-in), with or without agent

In the case of `CCCS(=O)(=O)Nc1ccc(F)c(C(=O)c2c[nH]c3ncc(-c4ccc(Cl)cc4)cc23)c1F` [vemurafenib], the “cognitive response in the fear conditioning experiment” value [1, 4] is reported as “significantly improved”, the “cognitive response in the fear conditioning experiment” value [1, 5] is reported as “no change” and the number of spines ([2]; PGRN-KI mice at 12 weeks of age, treated vs untreated/unknocked-down PGRN-KI mice) is reported as “markedly higher number of spines”. The number of spines ([2]; control mice (C57BL/6J without the knock-in) at 12 weeks of age, with or without agent) was “no change”, the “cognitive response in the Morris water maze test” value [3, 4] was “significantly improved” and the “cognitive response in the Morris water maze test” value [3, 5] was “no change”.
